In patent US20040072258A1, “Isoprenoid-dependent ras anchorage (idra) proteins” (priority 2003, published 2004) one finds binding data, which are given here for two substances.

Amino acid sequences for entries named in this document (tags omitted). A change or cut given only in a name is not applied to a line headed by its entry. Residues count along the entry.
UniProt P08699, residues 2-262: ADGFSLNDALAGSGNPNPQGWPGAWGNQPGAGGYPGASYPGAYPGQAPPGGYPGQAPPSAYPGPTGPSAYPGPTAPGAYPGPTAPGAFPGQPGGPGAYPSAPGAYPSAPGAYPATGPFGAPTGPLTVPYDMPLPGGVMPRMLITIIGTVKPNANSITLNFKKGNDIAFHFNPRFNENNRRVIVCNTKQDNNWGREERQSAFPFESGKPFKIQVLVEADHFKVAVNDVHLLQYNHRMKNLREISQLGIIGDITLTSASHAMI
UniProt P11762: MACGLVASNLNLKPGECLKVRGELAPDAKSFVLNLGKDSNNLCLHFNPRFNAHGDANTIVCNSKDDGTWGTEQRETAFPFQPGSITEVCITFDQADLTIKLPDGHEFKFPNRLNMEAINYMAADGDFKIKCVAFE

Results are given in words; binding and its absence hold for the method and conditions named. Some entries that bind do so weakly or less than the wild type.

Test [1] addresses H-Ras (12V) (UniProt P01112). As to the kind of experiment: chemical cross-linking, release from 34-43 kDa complexes, immunoblot. (In general: In western blotting, separated proteins are transferred to a membrane and probed.)
Test [2] deals with H-Ras (12V) (UniProt P01112). As to the kind of experiment: cross-linking of membranes, release from 34-43 kDa band, immunoblot (FIG. 4).
The target in test [3] is wild-type H-Ras of untransformed Rat-1 cells (UniProt P20171). The description is as above.
Test [4] has the same target. Put plainly: DSP cross-linking, purification of 34-43 kDa complexes, release by DTT, gel staining.

In the case of “galectin-3 of Rat-1 derived cells (from UniProt P08699 2-262)”, the binding entry in test [1], in test [2] and in test [3] was “binds” each time.

Take “rat galectin-1 (from UniProt P11762 2-135)”: the binding entry in test [3] and in test [4] was “binds” throughout.
